From publication PMC8547449
Results are given in words; binding and its absence hold for the method and conditions named. Binding seen in cells or lysates may run through a third protein. A yes stands for co-enrichment or nearness to the bait. Other partners may have been found. For part of these data: Tags and fused reporters may be left off the sequences shown.

By UniProt entry, the sequences of proteins in these tests, tags left out. Where a name states a change or a piece, a line headed by the entry shows the natural chain unless it says otherwise. Residues count along the entry.
UniProt W0T1Y4, residues 42-358: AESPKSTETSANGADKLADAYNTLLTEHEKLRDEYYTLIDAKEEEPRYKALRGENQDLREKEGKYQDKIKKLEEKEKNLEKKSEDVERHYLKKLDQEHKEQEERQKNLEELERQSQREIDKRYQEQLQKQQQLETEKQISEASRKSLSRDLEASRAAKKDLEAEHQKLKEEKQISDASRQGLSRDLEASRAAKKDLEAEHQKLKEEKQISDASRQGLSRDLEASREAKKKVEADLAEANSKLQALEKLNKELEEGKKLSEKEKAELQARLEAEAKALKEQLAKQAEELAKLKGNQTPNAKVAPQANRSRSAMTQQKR
UniProt P16947, residues 42-354: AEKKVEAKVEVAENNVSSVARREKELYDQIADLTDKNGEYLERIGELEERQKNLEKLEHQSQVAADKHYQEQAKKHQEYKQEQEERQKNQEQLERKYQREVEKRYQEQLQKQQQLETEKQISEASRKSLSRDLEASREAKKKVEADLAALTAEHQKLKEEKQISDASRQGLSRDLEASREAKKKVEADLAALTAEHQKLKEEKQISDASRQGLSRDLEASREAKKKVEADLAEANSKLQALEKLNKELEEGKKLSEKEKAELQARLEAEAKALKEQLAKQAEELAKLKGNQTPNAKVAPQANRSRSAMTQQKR
UniProt P02768, residues 25-609: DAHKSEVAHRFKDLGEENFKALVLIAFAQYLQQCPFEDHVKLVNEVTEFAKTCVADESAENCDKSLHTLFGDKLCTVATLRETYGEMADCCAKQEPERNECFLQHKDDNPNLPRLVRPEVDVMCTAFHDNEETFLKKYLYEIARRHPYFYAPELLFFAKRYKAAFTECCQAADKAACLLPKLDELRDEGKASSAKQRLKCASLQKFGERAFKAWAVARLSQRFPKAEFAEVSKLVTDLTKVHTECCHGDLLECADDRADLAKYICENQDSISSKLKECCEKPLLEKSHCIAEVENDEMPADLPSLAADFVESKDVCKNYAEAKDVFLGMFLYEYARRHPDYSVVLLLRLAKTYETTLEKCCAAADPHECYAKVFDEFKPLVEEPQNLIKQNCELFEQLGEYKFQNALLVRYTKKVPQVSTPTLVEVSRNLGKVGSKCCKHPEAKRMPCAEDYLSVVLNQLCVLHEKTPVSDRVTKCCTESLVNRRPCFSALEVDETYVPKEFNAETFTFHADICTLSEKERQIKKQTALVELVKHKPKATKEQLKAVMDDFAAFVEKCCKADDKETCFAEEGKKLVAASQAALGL
UniProt P01591, residues 23-159: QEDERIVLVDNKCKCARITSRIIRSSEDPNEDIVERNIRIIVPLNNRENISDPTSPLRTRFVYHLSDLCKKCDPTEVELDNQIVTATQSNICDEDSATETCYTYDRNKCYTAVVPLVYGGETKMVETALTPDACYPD
UniProt P02751, residues 32-2477: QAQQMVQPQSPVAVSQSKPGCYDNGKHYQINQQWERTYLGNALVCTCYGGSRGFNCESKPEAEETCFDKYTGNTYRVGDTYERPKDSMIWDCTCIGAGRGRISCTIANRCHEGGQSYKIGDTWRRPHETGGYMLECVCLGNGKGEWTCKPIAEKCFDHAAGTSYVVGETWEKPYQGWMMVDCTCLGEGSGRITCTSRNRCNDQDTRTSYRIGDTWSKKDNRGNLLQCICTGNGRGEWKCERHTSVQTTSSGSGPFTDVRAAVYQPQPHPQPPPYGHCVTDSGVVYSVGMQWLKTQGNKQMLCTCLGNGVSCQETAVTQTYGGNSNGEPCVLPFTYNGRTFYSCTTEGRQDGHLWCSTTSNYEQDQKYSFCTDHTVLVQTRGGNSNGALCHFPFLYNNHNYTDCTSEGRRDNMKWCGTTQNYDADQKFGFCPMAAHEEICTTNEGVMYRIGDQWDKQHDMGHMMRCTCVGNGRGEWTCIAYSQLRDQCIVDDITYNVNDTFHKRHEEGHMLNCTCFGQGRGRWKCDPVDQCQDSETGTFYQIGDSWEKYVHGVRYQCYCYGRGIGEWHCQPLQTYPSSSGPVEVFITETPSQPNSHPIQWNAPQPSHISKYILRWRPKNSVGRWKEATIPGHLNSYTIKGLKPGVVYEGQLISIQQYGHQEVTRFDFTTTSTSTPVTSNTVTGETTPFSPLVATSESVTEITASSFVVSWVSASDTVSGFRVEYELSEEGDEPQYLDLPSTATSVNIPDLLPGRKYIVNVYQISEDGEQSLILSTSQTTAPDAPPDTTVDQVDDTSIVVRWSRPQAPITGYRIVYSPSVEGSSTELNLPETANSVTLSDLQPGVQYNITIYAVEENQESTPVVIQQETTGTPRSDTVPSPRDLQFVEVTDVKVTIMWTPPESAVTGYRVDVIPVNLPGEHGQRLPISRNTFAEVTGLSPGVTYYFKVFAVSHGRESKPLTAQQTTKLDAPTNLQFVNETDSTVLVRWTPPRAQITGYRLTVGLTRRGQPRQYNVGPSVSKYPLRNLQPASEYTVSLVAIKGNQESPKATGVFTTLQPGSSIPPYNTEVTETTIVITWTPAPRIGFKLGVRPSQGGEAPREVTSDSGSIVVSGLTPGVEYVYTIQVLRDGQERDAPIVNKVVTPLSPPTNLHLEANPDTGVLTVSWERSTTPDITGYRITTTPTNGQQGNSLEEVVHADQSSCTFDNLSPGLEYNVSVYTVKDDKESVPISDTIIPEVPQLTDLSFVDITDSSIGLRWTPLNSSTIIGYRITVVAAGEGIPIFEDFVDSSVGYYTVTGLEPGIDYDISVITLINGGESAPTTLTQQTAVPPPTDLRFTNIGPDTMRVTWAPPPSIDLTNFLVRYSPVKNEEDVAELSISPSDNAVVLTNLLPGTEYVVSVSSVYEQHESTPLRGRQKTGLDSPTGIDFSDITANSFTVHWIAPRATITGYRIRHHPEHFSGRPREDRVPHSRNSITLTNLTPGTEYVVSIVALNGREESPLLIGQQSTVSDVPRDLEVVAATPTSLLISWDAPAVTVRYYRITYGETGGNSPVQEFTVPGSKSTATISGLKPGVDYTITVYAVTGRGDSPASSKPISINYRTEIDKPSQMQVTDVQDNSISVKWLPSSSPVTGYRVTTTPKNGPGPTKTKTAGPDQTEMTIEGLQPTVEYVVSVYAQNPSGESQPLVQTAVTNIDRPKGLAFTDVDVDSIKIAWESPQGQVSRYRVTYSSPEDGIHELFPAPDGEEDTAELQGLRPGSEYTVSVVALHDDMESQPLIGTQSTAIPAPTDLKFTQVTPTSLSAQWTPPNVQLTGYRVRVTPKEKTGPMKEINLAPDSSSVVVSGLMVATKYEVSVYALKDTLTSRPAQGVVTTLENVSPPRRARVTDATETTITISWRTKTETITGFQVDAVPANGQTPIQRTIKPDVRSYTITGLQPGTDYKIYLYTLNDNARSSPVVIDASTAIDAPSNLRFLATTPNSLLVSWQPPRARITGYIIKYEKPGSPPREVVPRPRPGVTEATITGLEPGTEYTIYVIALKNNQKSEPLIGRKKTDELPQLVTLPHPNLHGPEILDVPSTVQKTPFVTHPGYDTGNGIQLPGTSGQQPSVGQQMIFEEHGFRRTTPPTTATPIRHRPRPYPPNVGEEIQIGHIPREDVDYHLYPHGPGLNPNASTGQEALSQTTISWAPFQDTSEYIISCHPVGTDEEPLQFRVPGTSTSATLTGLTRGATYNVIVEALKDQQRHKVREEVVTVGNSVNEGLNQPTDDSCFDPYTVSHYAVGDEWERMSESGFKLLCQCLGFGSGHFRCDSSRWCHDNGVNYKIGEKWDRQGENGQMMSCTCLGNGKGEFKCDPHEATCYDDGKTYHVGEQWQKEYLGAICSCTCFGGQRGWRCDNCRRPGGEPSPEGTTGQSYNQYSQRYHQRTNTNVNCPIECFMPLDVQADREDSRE
UniProt P01009, residues 25-418: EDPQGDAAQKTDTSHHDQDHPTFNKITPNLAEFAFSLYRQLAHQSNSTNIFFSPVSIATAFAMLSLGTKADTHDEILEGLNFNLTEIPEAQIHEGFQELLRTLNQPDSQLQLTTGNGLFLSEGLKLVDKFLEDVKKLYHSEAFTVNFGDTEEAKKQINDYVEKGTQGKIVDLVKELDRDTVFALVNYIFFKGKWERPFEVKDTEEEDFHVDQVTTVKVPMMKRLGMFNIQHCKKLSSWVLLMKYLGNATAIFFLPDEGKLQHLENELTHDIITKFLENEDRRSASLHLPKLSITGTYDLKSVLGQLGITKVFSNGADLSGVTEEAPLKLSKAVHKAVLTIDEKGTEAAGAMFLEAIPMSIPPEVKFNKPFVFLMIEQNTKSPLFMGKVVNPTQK
UniProt P01833: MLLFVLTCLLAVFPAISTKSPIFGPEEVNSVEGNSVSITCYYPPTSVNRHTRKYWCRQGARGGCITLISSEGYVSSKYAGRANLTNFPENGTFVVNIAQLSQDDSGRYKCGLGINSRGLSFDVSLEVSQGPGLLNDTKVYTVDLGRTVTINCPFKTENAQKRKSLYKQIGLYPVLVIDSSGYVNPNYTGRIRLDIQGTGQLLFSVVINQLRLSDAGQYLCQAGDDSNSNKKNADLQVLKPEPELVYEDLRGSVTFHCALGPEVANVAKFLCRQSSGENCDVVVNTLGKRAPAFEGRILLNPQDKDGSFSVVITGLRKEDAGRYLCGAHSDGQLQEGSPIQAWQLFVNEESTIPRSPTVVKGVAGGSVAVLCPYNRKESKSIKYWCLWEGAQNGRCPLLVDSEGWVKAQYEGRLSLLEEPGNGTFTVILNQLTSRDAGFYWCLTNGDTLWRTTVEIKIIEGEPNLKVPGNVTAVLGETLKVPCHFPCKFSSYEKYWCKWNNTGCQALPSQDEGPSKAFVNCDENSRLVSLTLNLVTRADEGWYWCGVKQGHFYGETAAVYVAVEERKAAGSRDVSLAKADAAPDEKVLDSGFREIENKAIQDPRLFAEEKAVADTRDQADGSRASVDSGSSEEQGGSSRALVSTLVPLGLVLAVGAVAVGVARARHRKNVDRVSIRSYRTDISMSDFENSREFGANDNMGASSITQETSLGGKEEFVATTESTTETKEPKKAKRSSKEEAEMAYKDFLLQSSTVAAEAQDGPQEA

Columns and labels:
[1] = target: M28 protein, recombinant, affinity-tagged (Streptococcus pyogenes) (UniProt W0T1Y4); assay: affinity purification with mass spectrometry; 20 μg affinity-tagged M protein on Strep-Tactin Sepharose beads, 100 μl pooled normal human plasma, 37°C 1 h, washed with ice-cold PBS, eluted with 5 mM biotin; DIA-MS, hits filtered against sfGFP (log2 enrichment >1, adjusted P 0.05); only the target purified
[2] = target: T1, M1 protein, recombinant, affinity-tagged (Streptococcus pyogenes) (UniProt Q99XV0); assay: as above
T1 sequence: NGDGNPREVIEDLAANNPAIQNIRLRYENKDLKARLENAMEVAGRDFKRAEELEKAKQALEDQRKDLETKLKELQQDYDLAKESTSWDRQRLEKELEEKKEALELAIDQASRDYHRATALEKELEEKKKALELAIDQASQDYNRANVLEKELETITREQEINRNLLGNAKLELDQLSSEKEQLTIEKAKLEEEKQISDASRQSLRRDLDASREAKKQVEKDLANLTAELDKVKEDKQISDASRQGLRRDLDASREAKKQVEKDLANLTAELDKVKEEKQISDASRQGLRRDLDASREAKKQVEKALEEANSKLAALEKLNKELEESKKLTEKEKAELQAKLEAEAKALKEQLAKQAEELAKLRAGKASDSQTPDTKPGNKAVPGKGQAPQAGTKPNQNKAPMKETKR

[3] = target: M49 protein, recombinant, affinity-tagged (Streptococcus pyogenes) (UniProt P16947); assay: as above
[4] = target: M28 protein, recombinant, affinity-tagged (Streptococcus pyogenes) (UniProt W0T1Y4); assay: affinity purification with mass spectrometry; 20 μg affinity-tagged M1 or M28 on Strep-Tactin Sepharose beads, 200 μl pooled normal human saliva, 37°C 1 h, washed with ice-cold PBS, eluted with 5 mM biotin; M28 compared with M1; only the target purified
[5] = target: M28 protein, recombinant, affinity-tagged (Streptococcus pyogenes) (UniProt W0T1Y4); assay: affinity purification with mass spectrometry; affinity-tagged M28 on Strep-Tactin Sepharose beads, 100 μl of 100% saliva, 1% plasma in saliva, 10% plasma in saliva or 100% plasma, 37°C 1 h; relative intensities of pull-down against input; only the target purified

Substance	binding [1]	binding [2]	binding [3]	binding [4]	binding [5]
albumin (from UniProt P02768 25-609)	binds	binds	binds		
immunoglobulin J chain (from UniProt P01591 23-159)				binds	binds
fibronectin (from UniProt P02751 32-2477)		binds			
alpha-1-antitrypsin (from UniProt P01009 25-418)	binds				
polymeric immunoglobulin receptor (from UniProt P01833)				binds	binds
